Measurements published in article PMC4221739.
No constants are given. Whether binding was seen depends on the method and setting. Binding seen in cells or lysates may run through a third protein. Some entries that bind do so weakly or less than the wild type. Sequences can lack the tags named with a protein.

Molecular target: T1, full-length SF-Dlg3 (Streptavidin-Flag-tagged Dlg3) (UniProt P70175)
T1 sequence: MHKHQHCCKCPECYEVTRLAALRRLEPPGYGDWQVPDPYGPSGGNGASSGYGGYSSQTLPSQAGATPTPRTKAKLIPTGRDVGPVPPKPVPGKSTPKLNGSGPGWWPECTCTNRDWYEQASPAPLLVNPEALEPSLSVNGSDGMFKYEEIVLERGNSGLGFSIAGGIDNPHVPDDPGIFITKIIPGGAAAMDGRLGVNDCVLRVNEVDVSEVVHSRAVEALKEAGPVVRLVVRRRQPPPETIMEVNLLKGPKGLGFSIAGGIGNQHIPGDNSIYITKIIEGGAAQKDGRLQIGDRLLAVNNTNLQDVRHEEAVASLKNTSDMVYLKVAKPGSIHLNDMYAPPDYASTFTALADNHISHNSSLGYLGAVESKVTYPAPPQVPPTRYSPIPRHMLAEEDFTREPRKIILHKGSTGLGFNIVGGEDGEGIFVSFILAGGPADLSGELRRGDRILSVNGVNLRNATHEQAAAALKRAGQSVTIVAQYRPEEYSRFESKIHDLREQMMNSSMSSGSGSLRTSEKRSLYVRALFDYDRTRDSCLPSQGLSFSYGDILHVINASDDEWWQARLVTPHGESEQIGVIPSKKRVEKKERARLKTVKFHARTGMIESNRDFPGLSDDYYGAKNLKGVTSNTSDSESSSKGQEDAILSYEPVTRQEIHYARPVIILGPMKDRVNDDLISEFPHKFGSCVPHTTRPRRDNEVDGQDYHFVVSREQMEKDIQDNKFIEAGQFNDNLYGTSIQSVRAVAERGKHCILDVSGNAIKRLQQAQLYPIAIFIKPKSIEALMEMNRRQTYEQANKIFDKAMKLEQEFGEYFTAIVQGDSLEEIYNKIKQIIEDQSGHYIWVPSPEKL
Experiment: co-IP; SF-tagged Dlg3 variants precipitated on Strep-Tactin resin (Strep-IP) from lysates of serum starved, ciliated HEK293T cells co-transfected with Fltp-myc variants; lysis buffer 50 mM Tris/HCl pH 7.4, 150 mM NaCl, 2 mM EDTA, 1% Nonidet P-40; 1 hr at 4°C; desthiobiotin elution; western blot

B1: full-length Fltp-myc (Flattop, myc-tagged) (protein, UniProt Q6P8X9 1-189)
chain: MATNYSANQYEKAYLPTYLQNWSPARPTKEKIAAHEGYTQIIANDRGHLLPSVPRSKASPWGSFMGTWQMPLKIPPAKVTLTARTTTAADNLTKWIHKNPDLLNACNGLRPEISGKPFDPDSQTKQKKSVTKTVQQAPNPTIIPSSPVIQGDNPDEPQSSHPSAGHTPGPQTPVNSPNNPPPSPCKSTK
binding: binds
